Measured values taken from paper PMC9880817.
These are yes or no findings as the source states them, for the method shown. In cells and extracts the contact can be indirect. A yes stands for co-enrichment or nearness to the bait. Other partners may have been found. Where a sequence is shown, tags or fusion partners need not be part of it.

B1: Slr0146 (protein, UniProt P74445 1-170)
chain: MQKDFERLFHRAEDHYLQPPEIISFHKQLGLMRERLSAYRLLRDNEIVIFQAIADRLEEEFSNVPATQLQQALLHWISVLRYGAMAMLLSNPEYLQYRLLEWLEGMVQAHDLLAIEIRLSALLKEQLESLLGGPQYRLLEPFLVQADQTILGQAPAAVAEEEAEMMTLGE

Biological target: T1, Slr0149 with a green fluorescent protein (GFP) at its C-terminus (Synechocystis sp. PCC 6803) (UniProt P74448)
T1 sequence: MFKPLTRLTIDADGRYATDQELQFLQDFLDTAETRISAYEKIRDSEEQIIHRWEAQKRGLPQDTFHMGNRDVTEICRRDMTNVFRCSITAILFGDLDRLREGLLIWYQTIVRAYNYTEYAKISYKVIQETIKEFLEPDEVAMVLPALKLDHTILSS
Test: affinity purification with mass spectrometry; lysate with the C-terminally GFP-tagged bait; anti-GFP antibody (ab290) on Protein A MagBeads; sample detected by MS

binding, binds:
Slr0147
Slr0144
Slr0148
Slr0145
B1
